Earlier results as cited in article PMC4749642, “Evaluation of anticonvulsant and antinociceptive properties of new N-Mannich bases derived from pyrrolidine-2,5-dione and 3-methylpyrrolidine-2,5-dione” (Naunyn-Schmiedeberg's Archives of Pharmacology, 2015).
Where “and” joins values, the source holds several entries; their conditions need not be identical. Equal values may be shown once.

What was measured:
[1] = test system: mice; settings: ref Rybka et al. [2014]; Kamiński et al. [2015a]; cited from earlier work
[2] = test system: mice; set-up: method as in Rybka et al. [2014]; Kamiński et al. [2015a]; settings: ref Rybka et al. [2014]; Kamiński et al. [2015a]; cited from earlier work

Row | Structure (SMILES) | protective index (PI) in the s.c.PTZ test [1] | protective index (PI) in the MES test [2]
1 | O=C1CCC(=O)N1CN1CCN(c2ccc(Cl)c(Cl)c2)CC1 [Compound 23, N-[{4-(3,4-dichlorophenyl)-piperazin-1-yl}-methyl]-pyrrolidine-2,5-dione] | > 3.88 | > 13 and 13
2 | O=C1NC(=O)C(c2ccccc2)(c2ccccc2)N1 [Phenytoin, reference compound] | – | 7.74
3 | CCCC(CCC)C(=O)O [valproic acid, reference compound] | 1.8 | 1.5
4 | CC1CC(=O)N(CN2CCN(c3ccc(Cl)c(Cl)c3)CC2)C1=O (centres unmarked) [Compound 12, N-[{4-(3,4-dichlorophenyl)-piperazin-1-yl}-methyl]-3-methylpyrrolidine-2,5-dione] | > 3.73 | > 31 and 31
5 | CCC1(C)CC(=O)NC1=O (centres unmarked) [ethosuximide, reference compound] | 2.5 | –
